Laboratory results: PubChem BioAssay AID1671195 (Yale University, 2021)
Shown is an unselected part of about 22,000 reagents. About 1,510 of all reagents (6.9%) were called active. 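Active includes knockdowns raising or lowering LDL uptake; positive z-scores mean more uptake, negative mean less.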

Assay: 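Knockdowns that increase or decrease uptake of fluorescent LDL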 (primary screen)
Cells: human Huh7 hepatoma cells
Knock-down reagent: siRNA pool against human genes, 18 nM
Time to read-out: about 2 to 2.5 days of knockdown, then 8 h LDL uptake
Treatment: DiI-labelled LDL at 30 µg/ml for 8 h, in lipoprotein-deficient serum medium
Measured: 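Fluorescent LDL signal imaged in cells, scaled to the plate median, robust z-score for each replicate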
Reading the numbers: robust z-score: higher = more LDL uptake after knockdown
Active means: 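Active when two or more replicates show a robust z-score above 2 or below -2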

Against RPSAP32, the values are robust z-score, replicate 1 = 0.704; robust z-score, replicate 2 = 0.897; robust z-score, replicate 3 = 0.873; inactive.
Against CSNK1A1L, the entry reads robust z-score, replicate 1 = -0.199; robust z-score, replicate 2 = 0.00751; robust z-score, replicate 3 = -0.272; inactive.
Against BBOF1, the entry reads robust z-score, replicate 1 = -0.91; robust z-score, replicate 2 = -1.14; robust z-score, replicate 3 = -1.46; inactive.
Against ZNF283 the deposit lists robust z-score, replicate 1 = -0.178; robust z-score, replicate 2 = -0.321; robust z-score, replicate 3 = -0.00621; inactive.

Laid out differently: results already given
Target gene	robust z-score, replicate 1	robust z-score, replicate 2	robust z-score, replicate 3	activity call
RPSAP32	0.704	0.897	0.873	inactive
CSNK1A1L	-0.199	0.00751	-0.272	inactive

The list goes on.
After knock-down of TRAPPC12 the results were robust z-score, replicate 1 = 0.773; robust z-score, replicate 2 = 0.802; robust z-score, replicate 3 = 1.3; inactive.
Depletion of HTR3E came out at: robust z-score, replicate 1 = -0.856; robust z-score, replicate 2 = -0.675; robust z-score, replicate 3 = -1.21; inactive.
With knock-down of TAS2R5 the results were robust z-score, replicate 1 = 0.0598; robust z-score, replicate 2 = -0.0867; robust z-score, replicate 3 = 1.18; inactive.
With knock-down of MYLK2, the record shows robust z-score, replicate 1 = -0.123; robust z-score, replicate 2 = 1.04; robust z-score, replicate 3 = -0.555; inactive.
After knock-down of TRIM10, the screen gave robust z-score, replicate 1 = -0.722; robust z-score, replicate 2 = -0.514; robust z-score, replicate 3 = -0.173; inactive.
Against LOC440576 (retired record), the values are robust z-score, replicate 1 = 1.64; robust z-score, replicate 2 = 0.93; robust z-score, replicate 3 = 1.16; inactive.
LINC02381 scored robust z-score, replicate 1 = 0.208; robust z-score, replicate 2 = -0.515; robust z-score, replicate 3 = -0.179; inactive.
After knock-down of CYP20A1, the record shows robust z-score, replicate 1 = -1.79; robust z-score, replicate 2 = -2.17; robust z-score, replicate 3 = -2.06; active.
